Some of the results follow.
Compound: CC1Cc2ccccc2N1C(=O)C1CCCN(C1)C(=O)CCl (mixture of isomers) [TRIM25 ligand 11 (diastereomer mixture)]
Assay: probe-labelled cysteine peptide fold change vs DMSO (competition) (log2 fold change); higher = less target engagement (more negative = stronger competition)
Settings: THP-1, incubation time: 4 h
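Also: competitive chemoproteomic profiling in live THP-1 cells with an iodoacetamide desthiobiotin (IA-DTB) probe, comparing probe-labelled peptide intensities in compound-treated cells against DMSO-treated controls.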

Protein sequences, listed by entry. Tags and fused reporters are not part of them. Lines headed by an entry give the natural chain unless they say otherwise; changes in a name come on top.
UniProt O00429, whole entry, looked up: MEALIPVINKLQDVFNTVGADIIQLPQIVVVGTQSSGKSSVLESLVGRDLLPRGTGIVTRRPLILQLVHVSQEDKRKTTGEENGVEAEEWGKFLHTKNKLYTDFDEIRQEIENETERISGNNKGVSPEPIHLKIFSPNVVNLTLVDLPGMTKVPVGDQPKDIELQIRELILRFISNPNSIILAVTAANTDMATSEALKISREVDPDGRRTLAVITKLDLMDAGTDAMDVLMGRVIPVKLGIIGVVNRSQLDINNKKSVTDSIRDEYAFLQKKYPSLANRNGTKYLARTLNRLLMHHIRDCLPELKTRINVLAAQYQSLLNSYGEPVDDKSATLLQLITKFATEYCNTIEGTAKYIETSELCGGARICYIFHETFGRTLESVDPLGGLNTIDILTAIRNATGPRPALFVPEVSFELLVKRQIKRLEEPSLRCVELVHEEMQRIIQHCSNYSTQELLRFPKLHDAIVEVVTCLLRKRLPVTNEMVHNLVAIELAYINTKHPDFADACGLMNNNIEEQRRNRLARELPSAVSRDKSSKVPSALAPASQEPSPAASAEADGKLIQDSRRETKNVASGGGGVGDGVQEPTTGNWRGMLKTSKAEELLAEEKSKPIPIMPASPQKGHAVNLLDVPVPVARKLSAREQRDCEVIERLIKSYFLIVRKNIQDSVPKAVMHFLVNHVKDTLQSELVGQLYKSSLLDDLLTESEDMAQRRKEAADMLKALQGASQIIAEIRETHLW
UniProt O60879: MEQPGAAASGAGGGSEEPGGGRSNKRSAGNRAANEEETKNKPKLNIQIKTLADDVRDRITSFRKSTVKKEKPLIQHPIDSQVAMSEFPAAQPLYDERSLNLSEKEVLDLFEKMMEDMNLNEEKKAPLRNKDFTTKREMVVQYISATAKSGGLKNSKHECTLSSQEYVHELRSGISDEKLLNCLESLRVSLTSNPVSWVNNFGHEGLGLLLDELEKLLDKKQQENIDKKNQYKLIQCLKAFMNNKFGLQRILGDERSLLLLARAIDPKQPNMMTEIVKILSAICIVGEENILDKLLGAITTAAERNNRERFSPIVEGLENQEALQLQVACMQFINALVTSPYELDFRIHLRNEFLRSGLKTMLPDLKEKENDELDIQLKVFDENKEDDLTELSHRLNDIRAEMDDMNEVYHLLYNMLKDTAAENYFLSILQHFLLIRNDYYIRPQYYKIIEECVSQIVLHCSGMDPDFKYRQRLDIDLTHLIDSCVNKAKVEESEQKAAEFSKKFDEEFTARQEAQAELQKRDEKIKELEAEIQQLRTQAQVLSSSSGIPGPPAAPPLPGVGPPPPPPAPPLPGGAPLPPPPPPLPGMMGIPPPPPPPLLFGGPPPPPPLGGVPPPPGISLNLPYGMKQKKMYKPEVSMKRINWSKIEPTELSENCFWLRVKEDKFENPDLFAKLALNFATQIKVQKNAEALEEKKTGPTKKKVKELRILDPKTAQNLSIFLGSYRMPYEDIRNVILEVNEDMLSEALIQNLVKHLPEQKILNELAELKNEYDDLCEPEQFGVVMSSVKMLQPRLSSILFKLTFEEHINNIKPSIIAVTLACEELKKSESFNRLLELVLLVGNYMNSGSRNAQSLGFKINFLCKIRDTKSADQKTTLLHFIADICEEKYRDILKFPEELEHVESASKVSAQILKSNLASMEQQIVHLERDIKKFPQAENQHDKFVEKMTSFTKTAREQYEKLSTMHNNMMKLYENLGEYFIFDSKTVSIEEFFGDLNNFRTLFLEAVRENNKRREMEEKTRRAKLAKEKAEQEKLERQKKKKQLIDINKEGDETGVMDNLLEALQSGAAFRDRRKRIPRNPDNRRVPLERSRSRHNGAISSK
UniProt Q7Z478: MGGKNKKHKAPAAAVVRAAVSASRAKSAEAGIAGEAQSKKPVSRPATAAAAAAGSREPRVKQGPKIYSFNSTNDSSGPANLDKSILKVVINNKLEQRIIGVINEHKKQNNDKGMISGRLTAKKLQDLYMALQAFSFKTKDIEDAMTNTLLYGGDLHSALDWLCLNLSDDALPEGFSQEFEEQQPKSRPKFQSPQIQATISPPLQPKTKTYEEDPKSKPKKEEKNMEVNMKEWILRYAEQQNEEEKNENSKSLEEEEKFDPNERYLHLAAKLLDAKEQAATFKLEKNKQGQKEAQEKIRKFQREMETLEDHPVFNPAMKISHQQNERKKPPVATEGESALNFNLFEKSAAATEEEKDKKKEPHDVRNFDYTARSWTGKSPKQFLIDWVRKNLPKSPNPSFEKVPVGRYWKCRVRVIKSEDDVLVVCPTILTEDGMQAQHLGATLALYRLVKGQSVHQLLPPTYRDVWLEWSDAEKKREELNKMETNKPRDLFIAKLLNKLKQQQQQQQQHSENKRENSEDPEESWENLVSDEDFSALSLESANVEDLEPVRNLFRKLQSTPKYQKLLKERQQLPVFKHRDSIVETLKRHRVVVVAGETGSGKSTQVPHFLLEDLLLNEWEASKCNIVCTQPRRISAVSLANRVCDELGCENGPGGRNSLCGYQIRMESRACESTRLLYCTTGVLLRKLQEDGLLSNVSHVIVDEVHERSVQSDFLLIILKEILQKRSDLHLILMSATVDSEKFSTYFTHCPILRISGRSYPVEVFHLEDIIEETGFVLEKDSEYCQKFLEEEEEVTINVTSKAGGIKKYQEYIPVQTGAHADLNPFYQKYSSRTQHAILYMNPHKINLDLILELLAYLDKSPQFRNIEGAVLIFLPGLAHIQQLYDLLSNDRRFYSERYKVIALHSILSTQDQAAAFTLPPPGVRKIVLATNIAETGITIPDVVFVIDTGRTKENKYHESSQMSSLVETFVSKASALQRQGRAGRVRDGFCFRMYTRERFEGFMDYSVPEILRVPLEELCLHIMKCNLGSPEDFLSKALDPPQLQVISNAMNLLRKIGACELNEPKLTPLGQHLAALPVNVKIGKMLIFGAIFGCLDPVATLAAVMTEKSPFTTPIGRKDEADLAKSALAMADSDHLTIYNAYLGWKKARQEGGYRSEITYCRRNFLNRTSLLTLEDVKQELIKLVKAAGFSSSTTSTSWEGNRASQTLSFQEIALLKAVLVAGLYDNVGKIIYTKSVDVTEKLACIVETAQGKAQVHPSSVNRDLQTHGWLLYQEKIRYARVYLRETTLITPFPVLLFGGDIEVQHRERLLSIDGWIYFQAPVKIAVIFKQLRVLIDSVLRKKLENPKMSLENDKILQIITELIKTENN
UniProt Q8IYB7: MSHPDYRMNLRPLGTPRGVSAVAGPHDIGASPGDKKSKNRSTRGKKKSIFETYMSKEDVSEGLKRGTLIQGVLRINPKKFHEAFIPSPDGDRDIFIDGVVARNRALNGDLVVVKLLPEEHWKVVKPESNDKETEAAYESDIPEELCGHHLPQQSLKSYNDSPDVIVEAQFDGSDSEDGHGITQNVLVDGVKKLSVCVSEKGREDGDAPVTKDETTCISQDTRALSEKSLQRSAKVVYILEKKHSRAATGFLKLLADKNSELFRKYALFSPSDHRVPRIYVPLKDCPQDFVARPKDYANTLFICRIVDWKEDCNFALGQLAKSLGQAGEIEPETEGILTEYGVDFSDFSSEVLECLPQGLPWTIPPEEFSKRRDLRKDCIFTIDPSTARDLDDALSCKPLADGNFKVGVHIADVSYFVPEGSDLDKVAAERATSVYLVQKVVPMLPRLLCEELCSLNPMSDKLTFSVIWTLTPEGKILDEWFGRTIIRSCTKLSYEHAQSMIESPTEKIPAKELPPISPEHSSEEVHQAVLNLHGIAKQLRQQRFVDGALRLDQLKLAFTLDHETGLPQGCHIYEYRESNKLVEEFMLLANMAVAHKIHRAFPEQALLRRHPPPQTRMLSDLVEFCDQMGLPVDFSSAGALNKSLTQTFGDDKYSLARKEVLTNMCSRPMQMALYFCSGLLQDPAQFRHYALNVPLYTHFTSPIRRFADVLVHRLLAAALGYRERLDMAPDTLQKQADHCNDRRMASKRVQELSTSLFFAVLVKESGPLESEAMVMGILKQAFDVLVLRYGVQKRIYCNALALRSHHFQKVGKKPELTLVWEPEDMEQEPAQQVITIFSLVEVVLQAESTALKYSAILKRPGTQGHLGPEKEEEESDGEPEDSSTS
UniProt Q9H6R0: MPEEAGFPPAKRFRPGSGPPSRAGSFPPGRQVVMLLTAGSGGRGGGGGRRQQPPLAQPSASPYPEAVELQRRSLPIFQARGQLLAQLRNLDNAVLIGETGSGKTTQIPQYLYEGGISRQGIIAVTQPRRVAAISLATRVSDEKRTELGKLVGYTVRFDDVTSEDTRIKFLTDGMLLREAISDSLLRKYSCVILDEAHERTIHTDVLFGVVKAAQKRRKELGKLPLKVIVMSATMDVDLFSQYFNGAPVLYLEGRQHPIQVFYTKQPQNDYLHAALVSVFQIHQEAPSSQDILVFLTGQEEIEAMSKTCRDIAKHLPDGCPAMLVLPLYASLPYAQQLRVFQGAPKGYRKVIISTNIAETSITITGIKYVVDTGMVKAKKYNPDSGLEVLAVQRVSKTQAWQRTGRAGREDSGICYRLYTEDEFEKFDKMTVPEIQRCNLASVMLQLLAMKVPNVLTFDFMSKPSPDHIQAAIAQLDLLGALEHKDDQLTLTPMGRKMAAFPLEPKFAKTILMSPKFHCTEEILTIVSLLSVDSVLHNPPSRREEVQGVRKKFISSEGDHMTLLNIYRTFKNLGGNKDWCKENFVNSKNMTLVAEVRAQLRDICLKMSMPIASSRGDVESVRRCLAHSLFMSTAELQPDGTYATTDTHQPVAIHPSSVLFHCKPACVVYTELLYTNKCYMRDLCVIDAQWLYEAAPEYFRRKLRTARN
UniProt Q9BPW9: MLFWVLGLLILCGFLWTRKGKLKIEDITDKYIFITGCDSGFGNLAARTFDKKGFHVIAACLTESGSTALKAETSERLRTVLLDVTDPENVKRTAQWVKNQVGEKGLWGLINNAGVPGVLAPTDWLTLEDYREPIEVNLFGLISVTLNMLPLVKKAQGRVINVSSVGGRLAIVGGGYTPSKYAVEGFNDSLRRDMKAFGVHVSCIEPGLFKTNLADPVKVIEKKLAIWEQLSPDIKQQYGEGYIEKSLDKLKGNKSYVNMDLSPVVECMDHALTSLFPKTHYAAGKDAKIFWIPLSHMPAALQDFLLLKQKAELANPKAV
UniProt Q9Y2L1: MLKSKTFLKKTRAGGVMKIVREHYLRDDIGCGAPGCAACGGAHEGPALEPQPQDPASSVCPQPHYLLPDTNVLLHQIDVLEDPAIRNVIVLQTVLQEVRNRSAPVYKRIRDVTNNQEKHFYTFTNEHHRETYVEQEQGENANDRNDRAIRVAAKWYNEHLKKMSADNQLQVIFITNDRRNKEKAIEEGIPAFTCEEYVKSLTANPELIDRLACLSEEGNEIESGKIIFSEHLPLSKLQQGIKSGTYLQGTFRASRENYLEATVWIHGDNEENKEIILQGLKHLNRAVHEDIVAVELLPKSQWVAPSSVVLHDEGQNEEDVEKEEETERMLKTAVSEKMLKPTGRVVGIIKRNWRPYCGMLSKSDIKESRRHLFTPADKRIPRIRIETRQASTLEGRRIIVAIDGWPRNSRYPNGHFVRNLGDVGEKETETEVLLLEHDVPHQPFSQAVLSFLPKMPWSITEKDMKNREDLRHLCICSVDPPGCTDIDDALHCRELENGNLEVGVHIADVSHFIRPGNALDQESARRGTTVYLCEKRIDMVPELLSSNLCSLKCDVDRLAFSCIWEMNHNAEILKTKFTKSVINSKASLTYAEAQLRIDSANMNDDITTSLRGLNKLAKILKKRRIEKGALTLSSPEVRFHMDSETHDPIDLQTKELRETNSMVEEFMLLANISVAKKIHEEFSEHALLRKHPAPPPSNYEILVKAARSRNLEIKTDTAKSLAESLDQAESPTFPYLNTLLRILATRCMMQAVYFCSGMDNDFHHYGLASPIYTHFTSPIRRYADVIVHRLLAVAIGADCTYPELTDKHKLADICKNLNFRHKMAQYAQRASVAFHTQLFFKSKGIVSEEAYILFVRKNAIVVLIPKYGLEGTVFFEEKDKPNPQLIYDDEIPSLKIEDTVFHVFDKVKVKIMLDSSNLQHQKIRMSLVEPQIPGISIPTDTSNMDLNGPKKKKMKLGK
UniProt Q96EY1: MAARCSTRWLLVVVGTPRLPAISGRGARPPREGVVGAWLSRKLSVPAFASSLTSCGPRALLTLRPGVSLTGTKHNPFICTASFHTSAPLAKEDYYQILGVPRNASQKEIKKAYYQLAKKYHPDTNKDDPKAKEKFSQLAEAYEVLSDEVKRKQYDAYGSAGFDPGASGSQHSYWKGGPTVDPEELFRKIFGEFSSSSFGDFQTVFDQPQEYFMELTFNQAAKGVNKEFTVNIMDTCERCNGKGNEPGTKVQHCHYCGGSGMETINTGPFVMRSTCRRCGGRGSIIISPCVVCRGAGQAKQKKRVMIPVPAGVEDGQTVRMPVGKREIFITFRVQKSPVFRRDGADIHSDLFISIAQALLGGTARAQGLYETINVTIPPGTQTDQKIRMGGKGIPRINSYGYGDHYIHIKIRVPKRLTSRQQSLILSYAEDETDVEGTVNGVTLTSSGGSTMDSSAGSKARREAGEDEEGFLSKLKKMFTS

| Target | probe-labelled cysteine peptide fold change (10 µM) | probe-labelled cysteine peptide fold change (50 µM) |
| --- | --- | --- |
| DNAJA1_P31689_261_RGEDLFMCMDIQLVEALCGFQKPISTLDNR (UniProt P31689) | -0.404 | -0.233 |
| DNAJA4_Q8WW22_368_EFCPNEQNWR (UniProt Q8WW22) | -0.12 | -0.109 |
| DGLUCY_Q7Z3D6_316_GIGHLLCKDELLK (UniProt Q7Z3D6) | -0.338 | -0.199 |
| DHRS4L2_Q6PKH6_86_KQQNVDQAVATLQGEGLSVTGTVCHVGK (UniProt Q6PKH6) | -0.0195 | -0.116 |
| DNM1L_O00429_470_LHDAIVEVVTCLLR (UniProt O00429) | -0.0388 | -0.00916 |
| DNM1L_O00429_470_LHDAIVEVVTCLLRK (UniProt O00429) | -0.359 | -0.0808 |
| DIAPH2_O60879_862_INFLCK (UniProt O60879) | -0.0162 | 0.234 |
| DIAPH1_O60610_1227_KAGCAVTSLLASELTK (UniProt O60610) | -0.315 | -0.271 |
| DHX29_Q7Z478_1025_CNLGSPEDFLSK (UniProt Q7Z478) | -0.0291 | 0.144 |
| DLGAP5_Q15398_129_YRPDMPCFLLSNQNAVK (UniProt Q15398) | -0.299 | -0.594 |
| DIS3L2_Q8IYB7_146_ETEAAYESDIPEELCGHHLPQQSLK (UniProt Q8IYB7) | 0.175 | -0.159 |
| DHX33_Q9H6R0_518_FHCTEEILTIVSLLSVDSVLHNPPSRR (UniProt Q9H6R0) | 0.0209 | -0.279 |
| DHX36_Q9H2U1_781_DYCWEYFLSSNTLQMLHNMK (UniProt Q9H2U1) | 0.184 | 0.0577 |
| DLEC1_Q9Y238_256_LEDSCR (UniProt Q9Y238) | 0.892 | 0.979 |
| DNAJA2_O60884_308_VIEPGCVR (UniProt O60884) | 0.103 | 0.0856 |
| DHTKD1_Q96HY7_392_LVGCAIIHVNGDSPEEVVR (UniProt Q96HY7) | 0.134 | 0.117 |
| DNAJC7_Q99615_317_LDDAIEDCTNAVK (UniProt Q99615) | 0.0496 | 0.0796 |
| DNAJC11_Q9NVH1_38_LCMLYHPDK (UniProt Q9NVH1) | -0.095 | -0.0827 |
| DNAJC7_Q99615_317_KLDDAIEDCTNAVK (UniProt Q99615) | 0.0924 | 0.0175 |
| DLST_P36957_104_AVGDTVAEDEVVCEIETDK (UniProt P36957) | 0.223 | 0.0825 |
| DLD_P09622_306_AEVITCDVLLVCIGR (UniProt P09622) | 0.0832 | -0.0372 |

| Target | probe-labelled cysteine peptide fold change (10 µM) | probe-labelled cysteine peptide fold change (50 µM) |
| --- | --- | --- |
| DLD_P09622_85_NETLGGTCLNVGCIPSK (UniProt P09622) | 0.242 | 0.0374 |
| DHX8_Q14562_637_VSEEFGCCLGQEVGYTIR (UniProt Q14562) | 0.297 | 0.476 |
| DHX40_Q8IX18_225_LSAFFGNCPIFDIPGR (UniProt Q8IX18) | -0.00196 | 0.294 |
| DIS3L2_Q8IYB7_303_DYANTLFICR (UniProt Q8IYB7) | -0.0883 | 0.0174 |
| DNAAF5_Q86Y56_349_RPVLGCR (UniProt Q86Y56) | -0.0781 | -0.00168 |
| DHX9_Q08211_940_FCEHKR (UniProt Q08211) | -0.0475 | 0.0337 |
| DNAJA1_P31689_177_IHQIGPGMVQQIQSVCMECQGHGER (UniProt P31689) | 0.112 | 0.0675 |
| DHCR24_Q15392_474_SVHGFQMLYADCYMNREEFWEMFDGSLYHK (UniProt Q15392) | 0.16 | -0.0758 |
| DNM1L_O00429_300_DCLPELK (UniProt O00429) | -0.02 | 0.111 |
| DNAJC10_Q8IXB1_158_EFDAAVNSGELWFVNFYSPGCSHCHDLAPTWR (UniProt Q8IXB1) | -0.0379 | -0.492 |
| DNAJA1_P31689_180_IHQIGPGMVQQIQSVCMECQGHGER (UniProt P31689) | -0.0655 | -0.0823 |
| DNM1L_O00429_361_YIETSELCGGAR (UniProt O00429) | 0.21 | -0.152 |
| DMXL2_Q8TDJ6_1897_VGCPVLALEVLSK (UniProt Q8TDJ6) | 0.128 | 0.0139 |
| DHX9_Q08211_242_KLAAQSCALSLVR (UniProt Q08211) | -0.115 | -0.0446 |
| DIAPH1_O60610_1027_MTLLHFLAELCENDYPDVLK (UniProt O60610) | 0.0711 | 0.0888 |
| DHX16_O60231_932_VEVGLSSCQGDYIR (UniProt O60231) | 0.0609 | -0.0152 |
| DNAJC21_Q5F1R6_487_VPAEPQTMSVLISCTTCHSEFPSR (UniProt Q5F1R6) | -0.0893 | -0.339 |
| DNAJC9_Q8WXX5_150_GDMDQIMESVLCVQYTEEPR (UniProt Q8WXX5) | 0.0209 | -0.0796 |
| DHX38_Q92620_1072+1074_CICAAYFHQAAK (UniProt Q92620) | 0.0551 | -0.0197 |
| DIAPH2_O60879_484_LDIDLTHLIDSCVNK (UniProt O60879) | 0.0266 | 0.095 |
| DNAJC11_Q9NVH1_494_VIDVTVPLQCLVK (UniProt Q9NVH1) | 0.188 | 0.206 |

| Target | probe-labelled cysteine peptide fold change (10 µM) | probe-labelled cysteine peptide fold change (50 µM) |
| --- | --- | --- |
| DIS3L2_Q8IYB7_196_LSVCVSEK (UniProt Q8IYB7) | 0.096 | -0.0214 |
| DHX33_Q9H6R0_190_KYSCVILDEAHER (UniProt Q9H6R0) | -0.0944 | -0.0108 |
| DHX57_Q6P158_598_VANIICTQPR (UniProt Q6P158) | -0.0517 | -0.0882 |
| DHCR24_Q15392_393_CLQQALHTFQNDIHVYPIWLCPFILPSQPGLVHPK (UniProt Q15392) | 0.14 | -0.425 |
| DHX38_Q92620_1028_NNNYSTIWCNDHFIHAK (UniProt Q92620) | 0.121 | 0.111 |
| DHRS9_Q9BPW9_60_KGFHVIAACLTESGSTALK (UniProt Q9BPW9) | -0.0468 | 0.0975 |
| DHX30_Q7L2E3_673_GEPGGILCFLPGWQEIK (UniProt Q7L2E3) | 0.411 | 0.466 |
| DHX30_Q7L2E3_118_QAAAAACQLFK (UniProt Q7L2E3) | -0.0733 | -0.0927 |
| DMTF1_Q9Y222_271_DRCRLMKDTCNTGK (UniProt Q9Y222) | 0.0432 | 0.134 |
| DHX29_Q7Z478_749_FSTYFTHCPILR (UniProt Q7Z478) | 0.134 | 0.225 |
| DHX33_Q9H6R0_518_FHCTEEILTIVSLLSVDSVLHNPPSR (UniProt Q9H6R0) | -0.0585 | 0.00714 |
| DNAJC10_Q8IXB1_301_LSGMLDGLVNVGWMDCATQDNLCK (UniProt Q8IXB1) | 0.117 | 0.0761 |
| DMXL1_Q9Y485_551_SIMMYACTK (UniProt Q9Y485) | 0.0718 | -0.0716 |
| DIS3L2_Q8IYB7_797_IYCNALALR (UniProt Q8IYB7) | 0.0363 | 0.154 |
| DHX16_O60231_37_CTSAEEFVQR (UniProt O60231) | 0.079 | 0.0168 |
| DNAJC2_Q99543_276_TLVDNAYSCDPR (UniProt Q99543) | -0.0127 | -0.0992 |
| DNASE1L1_P49184_224_ASTHCTYDR (UniProt P49184) | 0.107 | -0.0989 |
| DIS3_Q9Y2L1_533_GTTVYLCEK (UniProt Q9Y2L1) | -0.101 | -0.119 |
| DHX36_Q9H2U1_234_ELVNLIDNHQVTVISGETGCGK (UniProt Q9H2U1) | 0.183 | 0.138 |
| DHX37_Q8IY37_456_TPLEDYSGECFR (UniProt Q8IY37) | 0.0427 | -0.00573 |
| DIS3_Q9Y2L1_474+476_HLCICSVDPPGCTDIDDALHCR (UniProt Q9Y2L1) | -0.108 | -0.0672 |

| Target | probe-labelled cysteine peptide fold change (10 µM) | probe-labelled cysteine peptide fold change (50 µM) |
| --- | --- | --- |
| DNAJA1_P31689_134_NVICDK (UniProt P31689) | 0.0262 | 0.114 |
| DIS3_Q9Y2L1_562_LAFSCIWEMNHNAEILK (UniProt Q9Y2L1) | 0.165 | 0.183 |
| DNAJB14_Q8TBM8_178_QYDLTGNEEQACNHQNNGR (UniProt Q8TBM8) | -0.286 | -0.352 |
| DIP2A_Q14689_543_ALTQACGYSEAETLTNVLDFKR (UniProt Q14689) | 0.205 | 0.286 |
| DIDO1_Q9BTC0_1449_MCADVR (UniProt Q9BTC0) | -0.0543 | -0.242 |
| DNAJC13_O75165_884_CHEEIGPFTDTR (UniProt O75165) | 0.0697 | 0.17 |
| DIAPH1_O60610_1027_MTLLHFLAELCENDYPDVLKFPDELAHVEK (UniProt O60610) | -0.189 | -0.171 |
| DHX29_Q7Z478_648_VCDELGCENGPGGR (UniProt Q7Z478) | 0.144 | 0.0951 |
| DHX36_Q9H2U1_284_AESCGSGNSTGYQIR (UniProt Q9H2U1) | 0.03 | -0.0409 |
| DNAJA3_Q96EY1_236_EFTVNIMDTCER (UniProt Q96EY1) | -0.079 | -0.0851 |
| DIDO1_Q9BTC0_288+296_CEEWFHGDCVGISEAR (UniProt Q9BTC0) | 0.272 | 0.148 |
| DNM2_P50570-3_427_CVDLVVSELATVIK (UniProt P50570) | -0.0402 | 0.0756 |
| DNAJA3_Q96EY1_289+292_GSIIISPCVVCR (UniProt Q96EY1) | 0.00428 | 0.0461 |
| DIS3L2_Q8IYB7_739_QADHCNDR (UniProt Q8IYB7) | 0.0961 | 0.0406 |
| DIS3_Q9Y2L1_492_HLCICSVDPPGCTDIDDALHCR (UniProt Q9Y2L1) | 0.202 | 0.173 |
| DNAJB1_P25685_267_EALCGCTVNVPTLDGR (UniProt P25685) | 0.0532 | 0.0369 |
| DIDO1_Q9BTC0_261_PKPECEGYDPNALYCICR (UniProt Q9BTC0) | 0.00316 | -0.0292 |
| DNM1L_O00429_505_HPDFADACGLMNNNIEEQR (UniProt O00429) | -0.17 | -0.224 |
| DNAJC2_Q99543_140_EGDNDYFTCITK (UniProt Q99543) | -0.135 | 0.0174 |
| DHX40_Q8IX18_497_LGLSMVEFPLPPHLTCAVIK (UniProt Q8IX18) | 0.107 | 0.0568 |
